According to patent US20100184677A1, “USE OF THE HUMAN PANCREATIC POLYPEPTIDE AS A THERAPEUTIC AGENT” (priority 2007, published 2010):
At least one compound was matched to its structure with a doubt left.

How the values were obtained:
A549 cells [1] = assay: Apoptosis prevention assay (C2 ceramide, Annexin-5); format: cell-based, human; settings: A549 cells pretreated 30 min with test peptide 10 micrograms per ml, then C2 ceramide
HUVEC [2] = assay: Endothelial cell migration assay; format: cell-based, human; settings: test peptide 10 micrograms per ml, 22 hours
HCMV = HCMV plaque reduction assay in MRC-5 cells; settings: HCMV in MRC-5 cells; peptide 10 micrograms per ml; 7-10 days
HUVEC [3] = assay: Endothelial tube formation assay; format: cell-based, human; settings: test peptide 10 micrograms per ml, 20 hours
[4] = system: Human Peripheral Blood Mononuclear Cells (PBMC); assay: B cell proliferation assay (SAC plus Interleukin-2 stimulated PBMC, 3H-thymidine); format: cell-based; settings: test peptide 10 micrograms per ml, 3H-thymidine incorporation
[5] = system: Human Peripheral Blood Mononuclear Cells (PBMC); assay: T cell proliferation assay (PHA-stimulated PBMC, 3H-thymidine); format: cell-based; settings: test peptide 10 micrograms per ml, 3H-thymidine incorporation
spleen cells = assay: Th1/Th2 cytokine profiling assay (Ovalbumin-restimulated spleen cells, CBA kit); format: cell-based, Balb/c mice; settings: test peptide 10 micrograms per ml; Ovalbumin restimulation; 72 hours
A549 cells [6] = assay: Apoptosis induction assay (Annexin-5); format: cell-based, human; settings: test peptide 10 micrograms per ml, 24 hours
hepatitis B virus (HBV) = assay: HBV experimental assay system (secreted HBV DNA, TaqMan PCR) in HepG2-2.2.15 cells; format: cell-based, hepatitis B virus (HBV) ayw strain; settings: test peptide 10 micrograms per ml; six days; HBV DNA in supernatant
A549 cells [7] = assay: Cell cycle assay (Propidium iodide, FACS); format: cell-based, human; settings: test peptide 10 micrograms per ml, 24 hours
RAW 264.7 cells = assay: Phagocytosis assay (Fluorescein-labeled Escherichia coli, flow cytometry); format: cell-based, mouse; settings: test peptide 10 micrograms per ml, 30 min prior to E. coli

CC[C@H](C)[C@H](NC(=O)[C@H](Cc1ccc(O)cc1)NC(=O)[C@H](CCCNC(=N)N)NC(=O)[C@H](CCCNC(=N)N)NC(=O)[C@H](CC(C)C)NC(=O)[C@H](CC(=O)O)NC(=O)[C@H](C)NC(=O)[C@H](C)NC(=O)[C@H](Cc1ccc(O)cc1)NC(=O)[C@H](CCC(N)=O)NC(=O)[C@H](C)NC(=O)[C@H](CCSC)NC(=O)[C@H](CCC(N)=O)NC(=O)[C@H](CCC(=O)O)NC(=O)[C@@H]1CCCN1C(=O)[C@@H](NC(=O)[C@H](C)NC(=O)[C@H](CC(N)=O)NC(=O)[C@H](CC(=O)O)NC(=O)CNC(=O)[C@@H]1CCCN1C(=O)[C@H](Cc1ccc(O)cc1)NC(=O)[C@@H](NC(=O)[C@@H]1CCCN1C(=O)[C@H](CCC(=O)O)NC(=O)[C@H](CC(C)C)NC(=O)[C@@H]1CCCN1C(=O)[C@H](C)N)C(C)C)[C@@H](C)O)C(=O)N[C@@H](CC(N)=O)C(=O)N[C@@H](CCSC)C(=O)N[C@@H](CC(C)C)C(=O)N[C@H](C(=O)N[C@@H](CCCNC(=N)N)C(=O)N1CCC[C@H]1C(=O)N[C@@H](CCCNC(=N)N)C(=O)N[C@@H](Cc1ccc(O)cc1)C(N)=O)[C@@H](C)O [Pancreatic polypeptide]
% prevention of ceramide induced apoptosis (A549 cells [1]): 0.0% | % inhibition of migration (HUVEC [2]): 22% | % plaque reduction (HCMV): 0.7% | % inhibition of tube formation (HUVEC [3]): −2% | % of SAC/IL2 induced control [4]: 87.7% | % of PHA induced Control [5]: 91.8% | IFNγ spleen cells; TH1 response (% of control) (spleen cells): 117.3 % of control | IL-2 spleen cells (% of control) (spleen cells): 0.0 % of control | IL-4 spleen cells; TH2 response (% of control) (spleen cells): 0.0 % of control | IL-5 spleen cells; TH2 response (% of control) (spleen cells): 54.6 % of control | TNF-a spleen cells; TH1 response (% of control) (spleen cells): 100.0 % of control | % of induction (A549 cells [6]): 1.2% | % inhibition of HBV replication in HEP G2 cells (hepatitis B virus (HBV)): 29.2% | Cell cycle analysis G0/G1 (A549 cells [7]): 58.2 | Cell cycle analysis G2/M (A549 cells [7]): 9.3 | Cell cycle analysis S (A549 cells [7]): 32.5 | % of control phagocytosis (RAW 264.7 cells): 120.0%
